From PMC12245033 come the findings set out here.

Protein sequences, listed by entry. Tags and fused reporters are not part of them.
UniProt Q14209: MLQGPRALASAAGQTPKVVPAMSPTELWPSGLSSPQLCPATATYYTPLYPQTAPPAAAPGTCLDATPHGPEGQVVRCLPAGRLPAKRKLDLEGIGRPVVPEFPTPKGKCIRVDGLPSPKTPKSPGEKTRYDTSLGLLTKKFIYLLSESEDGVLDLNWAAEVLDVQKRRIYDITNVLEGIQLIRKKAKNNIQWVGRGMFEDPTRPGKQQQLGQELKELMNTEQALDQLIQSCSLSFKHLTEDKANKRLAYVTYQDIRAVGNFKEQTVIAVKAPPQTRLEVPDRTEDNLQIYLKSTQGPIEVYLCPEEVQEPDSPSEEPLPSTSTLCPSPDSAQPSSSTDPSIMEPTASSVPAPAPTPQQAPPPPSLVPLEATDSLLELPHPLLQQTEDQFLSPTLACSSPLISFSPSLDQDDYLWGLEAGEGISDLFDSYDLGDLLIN

These are yes or no findings as the source states them, for the method shown. In cells and extracts the contact can be indirect. Some binding calls cover weakened binding; strength is not graded here. For some assays here: Sequences can lack the tags named with a protein.

The target in assay [1] is T1, DCAF13 (human (endogenous in liver CSCs)) (UniProt Q9NV06).
T1 sequence: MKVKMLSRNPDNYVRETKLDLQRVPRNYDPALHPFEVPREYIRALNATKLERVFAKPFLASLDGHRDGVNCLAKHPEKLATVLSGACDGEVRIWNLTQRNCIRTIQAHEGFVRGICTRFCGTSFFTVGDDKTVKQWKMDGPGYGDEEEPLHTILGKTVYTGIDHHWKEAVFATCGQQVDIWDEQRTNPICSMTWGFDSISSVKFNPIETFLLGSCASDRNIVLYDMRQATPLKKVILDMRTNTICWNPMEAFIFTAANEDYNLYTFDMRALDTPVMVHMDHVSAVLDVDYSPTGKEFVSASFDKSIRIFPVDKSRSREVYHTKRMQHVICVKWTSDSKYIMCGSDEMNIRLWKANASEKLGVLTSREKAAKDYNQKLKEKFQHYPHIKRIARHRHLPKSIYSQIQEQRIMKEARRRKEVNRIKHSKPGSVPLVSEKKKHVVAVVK
Briefly: co-IP; endogenous proteins, liver CSCs lysed in RIPA buffer, antibody 2 h, Protein A/G agarose beads, Western blot.

The target in a further assay is Flag-tagged E2F2 (UniProt Q14209). Briefly: co-IP; Myc-DCAF13 and Flag-E2F2 co-transfected for 48 h into control, SNORA74A depleted or SNORA74A rescued liver CSCs; anti-Flag immunoprecipitation, blot with anti-Flag or anti-Myc.

Regarding E2F2 (from UniProt Q14209 1-437), in assay [1], the binding result was “binds”.

B1: Myc-tagged DCAF13 (protein, UniProt Q9NV06 1-445)
chain: T1 sequence
In the case of B1, the binding result with Flag-tagged E2F2 is reported as “binds”.
